Earlier results on one molecule are cited in US8563616B2, “Desensitizing drug product” (priority 2009, dated 2013).

For the data set the following is noted: in the mixtures that formed a homogenous oil; cited from earlier work.

For the molecule `CCN(CC)CC(=O)Nc1c(C)cccc1C` [Lidocaine, lidocaine], the chemical stability result is on record as “chemically stable”.
